{
  "source": "PubChem BioAssay AID270",
  "about": "(DTP/NCI, 2004)",
  "system": "BDF1 mice, s.c. Lewis lung carcinoma, T/C %",
  "test": "NCI In Vivo Anticancer Drug Screen. Data for tumor model Lewis Lung Carcinoma (subcutaneous) in B6D2F1 (BDF1) mice",
  "procedure,_shortened": "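Antitumor effect in vivo is scored from survival or tumor burden, reported as treated relative to vehicle controls.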",
  "key": {"[1]": {"conditions": "T/C endpoint: median survival time, dose: 32.0 mg/kg/injection, schedule: Q07DX002 (ip), vehicle: saline with Tween-80, higher T/C = longer survival"}},
  "note": "The list is a part of this screen's results and no random one: it gathers tests that were run many times, whatever their T/C, doses with no T/C, and many T/C values between a quarter and a half above the control. Further doses and runs are listed elsewhere. T/C: endpoint of the treated group in % of that of the vehicle group. Some entries give survivors of the animals treated and no T/C: the source files T/C as zero there, which appears to mark a toxic dose or a test without result, not a measured value. Some doses without a T/C left all or most animals alive at the check, yet need not have been tolerated: the source hardly ever lists a survival T/C far under the control, and the zero likely stands for such cases as well. Counts of survivors are from the toxicity check (mostly the fifth day) where no day follows; animals may have died later. Schedule codes are those of the source, taken here to give the interval after Q, in days (D) or hours (H), and the number of doses after X. Some entries hold several experiments; the results are listed from low to high. For survival time, this PubChem deposit counts one and a half times the control or more as active, and values a quarter to a half above the control carry no call in these data; other NCI protocols may use other cut-offs.",
  "data": [
    {"smiles": "CC(=O)OCC1CCC(NC(=O)N(CCCl)N=O)CC1", "note": "(configuration not stated)", "values": [
      {"measurement": "survivor count", "setting": "T/C endpoint: median survival time, dose: 60.0 mg/kg/injection, schedule: Q01DX001 (ip), vehicle: Klucel (hydroxypropylcellulose) (HPC), higher T/C = longer survival", "result": "10 of 10 on day 11"}
    ]},
    {"smiles": "CCCCCCC(=O)NC1=C(N2CC2)C(=O)C(NC(=O)CCCCCC)=C(N2CC2)C1=O", "values": [
      {"measurement": "survivor count", "setting": "T/C endpoint: mean tumor weight, dose: 30.0 mg/kg/injection, schedule: Q01DX011 (ip), vehicle: other, higher T/C = larger tumour", "result": "0 of 6"},
      {"measurement": "survivor count", "setting": "T/C endpoint: mean tumor weight, dose: 120.0 mg/kg/injection, schedule: Q01DX011 (ip), vehicle: other, higher T/C = larger tumour", "result": "2 of 6"}
    ]},
    {"smiles": "COC1=C(N)C(=O)c2nc(-c3nc(C(=O)O)c(C)c(-c4ccc(OC)c(OC)c4O)c3N)ccc2C1=O", "values": [
      {"measurement": "survivor count", "setting": "T/C endpoint: median survival time, dose: 0.5 mg/kg/injection, schedule: Q01DX009 (ip), vehicle: saline, higher T/C = longer survival", "result": "10 of 10"},
      {"measurement": "survivor count", "setting": "T/C endpoint: median survival time, dose: 1.0 mg/kg/injection, schedule: Q01DX009 (ip), vehicle: saline, higher T/C = longer survival", "result": "10 of 10"},
      {"measurement": "survivor count", "setting": "T/C endpoint: median survival time, dose: 4.0 mg/kg/injection, schedule: Q01DX009 (ip), vehicle: saline, higher T/C = longer survival", "result": "0 of 10"}
    ]},
    {"smiles": "O=NN(CCF)C(=O)NC1CCSCC1", "values": [
      {"measurement": "survivor count", "setting": "T/C endpoint: median survival time, dose: 10.0 mg/kg/injection, schedule: Q01DX009 (ip), vehicle: saline with Tween-80, higher T/C = longer survival", "result": "10 of 10"},
      {"measurement": "T/C", "setting": "T/C endpoint: median survival time, dose: 13.0 mg/kg/injection, schedule: Q04DX004 (ip), vehicle: saline with Tween-80, higher T/C = longer survival", "result": "143 % of control"},
      {"measurement": "survivor count", "setting": "T/C endpoint: median survival time, dose: 20.0 mg/kg/injection, schedule: Q01DX009 (ip), vehicle: saline with Tween-80, higher T/C = longer survival", "result": "0 of 10"},
      {"measurement": "T/C", "setting": "T/C endpoint: median survival time, dose: 20.0 mg/kg/injection, schedule: Q07DX002 (ip), vehicle: saline with Tween-80, higher T/C = longer survival", "result": "139 % of control"},
      {"measurement": "survivor count", "setting": "T/C endpoint: median survival time, dose: 23.0 mg/kg/injection, schedule: Q04DX004 (ip), vehicle: saline with Tween-80, higher T/C = longer survival", "result": "10 of 10"},
      {"measurement": "survivor count", "setting": "T/C endpoint: median survival time, dose: 25.0 mg/kg/injection, schedule: Q07DX002 (ip), vehicle: saline with Tween-80, higher T/C = longer survival", "result": "0 of 10 on day 11"},
      {"measurement": "T/C", "setting": "[1]", "result": "128 % of control"},
      {"measurement": "survivor count", "setting": "[1]", "result": "0 of 10 on day 11 and 1 of 10"},
      {"measurement": "survivor count", "setting": "T/C endpoint: median survival time, dose: 39.0 mg/kg/injection, schedule: Q07DX002 (ip), vehicle: saline with Tween-80, higher T/C = longer survival", "result": "0 of 10 on day 11 and 6 of 10"},
      {"measurement": "survivor count", "setting": "T/C endpoint: median survival time, dose: 40.0 mg/kg/injection, schedule: Q01DX009 (ip), vehicle: saline with Tween-80, higher T/C = longer survival", "result": "0 of 10"},
      {"measurement": "survivor count", "setting": "T/C endpoint: median tumor weight (est.), dose: 41.0 mg/kg/injection, schedule: Q01DX001 (ip), vehicle: saline with Tween-80, higher T/C = larger tumour", "result": "5 of 10 on day 19"}
    ]},
    {"smiles": "O=P1(NCCCl)OCCCN1CCCl", "note": "(configuration not stated)", "values": [
      {"measurement": "T/C", "setting": "T/C endpoint: median survival time, dose: 100.0 mg/kg/injection, schedule: Q01DX001 (ip), vehicle: saline, higher T/C = longer survival", "result": "126 % of control"},
      {"measurement": "T/C", "setting": "T/C endpoint: median survival time, dose: 100.0 mg/kg/injection, schedule: Q01DX009 (ip), vehicle: Klucel (hydroxypropylcellulose) (HPC), higher T/C = longer survival", "result": "126 % of control"},
      {"measurement": "survivor count", "setting": "T/C endpoint: median survival time, dose: 200.0 mg/kg/injection, schedule: Q01DX009 (ip), vehicle: Klucel (hydroxypropylcellulose) (HPC), higher T/C = longer survival", "result": "10 of 10"},
      {"measurement": "survivor count", "setting": "T/C endpoint: median survival time, dose: 400.0 mg/kg/injection, schedule: Q01DX009 (ip), vehicle: Klucel (hydroxypropylcellulose) (HPC), higher T/C = longer survival", "result": "6 of 10"},
      {"measurement": "survivor count", "setting": "T/C endpoint: median survival time, dose: 800.0 mg/kg/injection, schedule: Q01DX001 (ip), vehicle: saline, higher T/C = longer survival", "result": "6 of 10 on day 49"}
    ]}
  ]
}
